Experimental data from article PMC5841321.
Results are given in words; binding and its absence hold for the method and conditions named. In cells and extracts the contact can be indirect. Here binding means that the protein was enriched with, or labelled near, the bait; the list need not be complete.

T1: E3 ubiquitin-protein ligase Midline-1 (UniProt O15344)
T1 sequence: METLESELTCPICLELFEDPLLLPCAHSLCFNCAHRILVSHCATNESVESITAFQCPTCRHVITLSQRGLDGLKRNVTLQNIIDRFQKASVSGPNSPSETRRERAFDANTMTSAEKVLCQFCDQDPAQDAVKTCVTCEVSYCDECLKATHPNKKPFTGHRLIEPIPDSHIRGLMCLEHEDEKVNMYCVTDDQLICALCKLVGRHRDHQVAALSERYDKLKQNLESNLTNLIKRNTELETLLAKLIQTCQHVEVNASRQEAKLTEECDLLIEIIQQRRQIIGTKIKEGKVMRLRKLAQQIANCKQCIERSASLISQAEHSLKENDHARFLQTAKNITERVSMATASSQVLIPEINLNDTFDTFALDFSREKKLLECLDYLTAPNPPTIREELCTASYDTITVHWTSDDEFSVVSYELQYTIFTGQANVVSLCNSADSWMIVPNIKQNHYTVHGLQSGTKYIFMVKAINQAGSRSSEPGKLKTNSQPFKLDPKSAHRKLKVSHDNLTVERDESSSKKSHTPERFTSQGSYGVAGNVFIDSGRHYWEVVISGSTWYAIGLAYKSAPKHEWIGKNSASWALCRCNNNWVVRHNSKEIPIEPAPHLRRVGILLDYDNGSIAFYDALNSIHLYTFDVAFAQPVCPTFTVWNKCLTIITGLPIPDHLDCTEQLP

B1: Constitutive coactivator of PPAR-gamma-like protein 1 (protein, UniProt Q9NZB2 1-1118)
chain: MGVQGFQDYIEKHCPSAVVPVELQKLARGSLVGGGRQRPPQTPLRLLVDADNCLHRLYGGFYTDWVSGGQWNHMLGYLAALAKACFGGNIELFVFFNGALEKARLHEWVKRQGNERQTAQQIVSHVQNKGTPPPKVWFLPPVCMAHCIRLALIRFHVKVAQSIEDHHQEVIGFCRENGFHGLVAYDSDYALCNIPYYFSAHALKLSRNGKSLTTSQYLMHEVAKQLDLNPNRFPIFAALLGNHILPDEDLASFHWSLLGPEHPLASLKVRAHQLVLPPCDVVIKAVADYVRNIQDTSDLDAIAKDVFQHSQSRTDDKVIRFKRAIGYYSATSKPMSFHPPHYLAARPGPFGMPGMVPPHVPPQMLNIPQTSLQAKPVAPQVPSPGGAPGQGPYPYSLSEPAPLTLDTSGKNLTEQNSYSNIPHEGKHTPLYERSSPINPAQSGSPNHVDSAYFPGSSTSSSSDNDEGSGGATNHISGNKIGWEKTGSHSEPQARGDPGDQTKAEGSSTASSGSQLAEGKGSQMGTVQPIPCLLSMPTRNHMDITTPPLPPVAPEVLRVAEHRHKKGLMYPYIFHVLTKGEIKIAVSIEDEANKDLPPAALLYRPVRQYVYGVLFSLAESRKKTERLAFRKNRLPPEFSPVIIKEWAAYKGKSPQTPELVEALAFREWTCPNLKRLWLGKAVEDKNRRMRAFLACMRSDTPAMLNPANVPTHLMVLCCVLRYMVQWPGARILRRQELDAFLAQALSPKLYEPDQLQELKIENLDPRGIQLSALFMSGVDMALFANDACGQPIPWEHCCPWMYFDGKLFQSKLLKASREKTPLIDLCDGQADQAAKVEKMRQSVLEGLSFSRQSHTLPFPPPPALPFYPASAYPRHFGPVPPSQGRGRGFAGVCGFGGPYGETVATGPYRAFRVAAASGHCGAFSGSDSSRTSKSQGGVQPIPSQGGKLEIAGTVVGHWAGSRRGRGGRGPFPLQVVSVGGPARGRPRGVISTPVIRTFGRGGRYYGRGYKNQAAIQGRPPYAASAEEVAKELKSKSGESKSSAMSSDGSLAENGVMAEEKPAPQMNGSTGDARAPSHSESALNNDSKTCNTNPHLNALSTDSACRREAALEAAVLNKEE
B2: Guanine nucleotide-binding protein-like 3 (protein, UniProt Q9BVP2 1-549)
chain: MKRPKLKKASKRMTCHKRYKIQKKVREHHRKLRKEAKKRGHKKPRKDPGVPNSAPFKEALLREAELRKQRLEELKQQQKLDRQKELEKKRKLETNPDIKPSNVEPMEKEFGLCKTENKAKSGKQNSKKLYCQELKKVIEASDVVLEVLDARDPLGCRCPQVEEAIVQSGQKKLVLILNKSDLVPKENLESWLNYLKKELPTVVFRASTKPKDKGKITKRVKAKKNAAPFRSEVCFGKEGLWKLLGGFQETCSKAIRVGVIGFPNVGKSSIINSLKQEQMCNVGVSMGLTRSMQVVPLDKQITIIDSPSFIVSPLNSSSALALRSPASIEVVKPMEAASAILSQADARQVVLKYTVPGYRNSLEFFTVLAQRRGMHQKGGIPNVEGAAKLLWSEWTGASLAYYCHPPTSWTPPPYFNESIVVDMKSGFNLEELEKNNAQSIRAIKGPHLANSILFQSSGLTNGIIEEKDIHEELPKRKERKQEEREDDKDSDQETVDEEVDENSSGMFAAEETGEALSEETTAGEQSTRSFILDKIIEEDDAYDFSTDYV
B3: Serine/threonine-protein phosphatase 6 reg. ankyrin repeat subunit A (protein, UniProt O15084 1-1053)
chain: MAFLKLRDQPSLVQAIFNGDPDEVRALIFKKEDVNFQDNEKRTPLHAAAYLGDAEIIELLILSGARVNAKDSKWLTPLHRAVASCSEEAVQVLLKHSADVNARDKNWQTPLHIAAANKAVKCAEALVPLLSNVNVSDRAGRTALHHAAFSGHGEMVKLLLSRGANINAFDKKDRRAIHWAAYMGHIEVVKLLVSHGAEVTCKDKKSYTPLHAAASSGMISVVKYLLDLGVDMNEPNAYGNTPLHVACYNGQDVVVNELIDCGAIVNQKNEKGFTPLHFAAASTHGALCLELLVGNGADVNMKSKDGKTPLHMTALHGRFSRSQTIIQSGAVIDCEDKNGNTPLHIAARYGHELLINTLITSGADTAKRGIHGMFPLHLAALSGFSDCCRKLLSSGFDIDTPDDFGRTCLHAAAAGGNLECLNLLLNTGADFNKKDKFGRSPLHYAAANCNYQCLFALVGSGASVNDLDERGCTPLHYAATSDTDGKCLEYLLRNDANPGIRDKQGYNAVHYSAAYGHRLCLQLIASETPLDVLMETSGTDMLSDSDNRATISPLHLAAYHGHHQALEVLVQSLLDLDVRNSSGRTPLDLAAFKGHVECVDVLINQGASILVKDYILKRTPIHAAATNGHSECLRLLIGNAEPQNAVDIQDGNGQTPLMLSVLNGHTDCVYSLLNKGANVDAKDKWGRTALHRGAVTGHEECVDALLQHGAKCLLRDSRGRTPIHLSAACGHIGVLGALLQSAASMDANPATADNHGYTALHWACYNGHETCVELLLEQEVFQKTEGNAFSPLHCAVINDNEGAAEMLIDTLGASIVNATDSKGRTPLHAAAFTDHVECLQLLLSHNAQVNSVDSTGKTPLMMAAENGQTNTVEMLVSSASAELTLQDNSKNTALHLACSKGHETSALLILEKITDRNLINATNAALQTPLHVAARNGLTMVVQELLGKGASVLAVDENGYTPALACAPNKDVADCLALILATMMPVSSSSPLSSLTFNAINRYTNTSKTVSFEALPIMRNEPSSYCSFNNIGGEQEYLYTDVDELNDSDSETY
B4: Golgin subfamily A member 3 (protein, UniProt Q08378 1-1498)
chain: MDGASAEQDGLQEDRSHSGPSSLPEAPLKPPGPLVPPDQQDKVQCAEVNRASTEGESPDGPGQGGLCQNGPTPPFPDPPSSLDPTTSPVGPDASPGVAGFHDNLRKSQGTSAEGSVRKEALQSLRLSLPMQETQLCSTDSPLPLEKEEQVRLQARKWLEEQLKQYRVKRQQERSSQPATKTRLFSTLDPELMLNPENLPRASTLAMTKEYSFLRTSVPRGPKVGSLGLPAHPREKKTSKSSKIRSLADYRTEDSNAGNSGGNVPAPDSTKGSLKQNRSSAASVVSEISLSPDTDDRLENTSLAGDSVSEVDGNDSDSSSYSSASTRGTYGILSKTVGTQDTPYMVNGQEIPADTLGQFPSIKDVLQAAAAEHQDQGQEVNGEVRSRRDSICSSVSLESSAAETQEEMLQVLKEKMRLEGQLEALSLEASQALKEKAELQAQLAALSTKLQAQVECSHSSQQRQDSLSSEVDTLKQSCWDLERAMTDLQNMLEAKNASLASSNNDLQVAEEQYQRLMAKVEDMQRSMLSKDNTVHDLRQQMTALQSQLQQVQLERTTLTSKLKASQAEISSLQSVRQWYQQQLALAQEARVRLQGEMAHIQVGQMTQAGLLEHLKLENVSLSQQLTETQHRSMKEKGRIAAQLQGIEADMLDQEAAFMQIQEAKTMVEEDLQRRLEEFEGERERLQRMADSAASLEQQLEQVKLTLLQRDQQLEALQQEHLDLMKQLTLTQEALQSREQSLDALQTHYDELQARLGELQGEAASREDTICLLQNEKIILEAALQAAKSGKEELDRGARRLEEGTEETSETLEKLREELAIKSGQVEHLQQETAALKKQMQKIKEQFLQQKVMVEAYRRDATSKDQLISELKATRKRLDSELKELRQELMQVHGEKRTAEAELSRLHREVAQVRQHMADLEGHLQSAQKERDEMETHLQSLQFDKEQMVAVTEANEALKKQIEELQQEARKAITEQKQKMRRLGSDLTSAQKEMKTKHKAYENAVGILSRRLQEALAAKEAADAELGQLRAQGGSSDSSLALHERIQALEAELQAVSHSKTLLEKELQEVIALTSQELEESREKVLELEDELQESRGFRKKIKRLEESNKKLALELEHEKGKLTGLGQSNAALREHNSILETALAKREADLVQLNLQVQAVLQRKEEEDRQMKHLVQALQASLEKEKEKVNSLKEQVAAAKVEAGHNRRHFKAASLELSEVKKELQAKEHLVQKLQAEADDLQIREGKHSQEIAQFQAELAEARAQLQLLQKQLDEQLSKQPVGNQEMENLKWEVDQKEREIQSLKQQLDLTEQQGRKELEGLQQLLQNVKSELEMAQEDLSMTQKDKFMLQAKVSELKNNMKTLLQQNQQLKLDLRRGAAKTRKEPKGEASSSNPATPIKIPDCPVPASLLEELLRPPPAVSKEPLKNLNSCLQQLKQEMDSLQRQMEEHALTVHESLSSWTPLEPATASPVPPGGHAGPRGDPQRHSQSRASKEGPGE

These binders were tested against T1, E3 ubiquitin-protein ligase Midline-1 (assay: affinity purification with mass spectrometry; MID1-FLAG expressed in HEK293T, lysate in TKM buffer (20 mM Tris pH 7.4, 100 mM KCl, 5 mM MgCl2, 0.5% NP40, 1 mM DTT), anti-FLAG M1 agarose overnight at 4 °C, 6 washes; untransfected cells as control; Q-Exactive, MaxQuant, 1% FDR).

Binder | binding
B1 | binds
B2 | binds
B3 | binds
B4 | binds
